In publication PMC5758517:
Results are given in words; binding and its absence hold for the method and conditions named. Binding seen in cells or lysates may run through a third protein. Some binding calls cover weakened binding; strength is not graded here.

Amino acid sequences for entries named in this document (tags omitted).
UniProt O60260: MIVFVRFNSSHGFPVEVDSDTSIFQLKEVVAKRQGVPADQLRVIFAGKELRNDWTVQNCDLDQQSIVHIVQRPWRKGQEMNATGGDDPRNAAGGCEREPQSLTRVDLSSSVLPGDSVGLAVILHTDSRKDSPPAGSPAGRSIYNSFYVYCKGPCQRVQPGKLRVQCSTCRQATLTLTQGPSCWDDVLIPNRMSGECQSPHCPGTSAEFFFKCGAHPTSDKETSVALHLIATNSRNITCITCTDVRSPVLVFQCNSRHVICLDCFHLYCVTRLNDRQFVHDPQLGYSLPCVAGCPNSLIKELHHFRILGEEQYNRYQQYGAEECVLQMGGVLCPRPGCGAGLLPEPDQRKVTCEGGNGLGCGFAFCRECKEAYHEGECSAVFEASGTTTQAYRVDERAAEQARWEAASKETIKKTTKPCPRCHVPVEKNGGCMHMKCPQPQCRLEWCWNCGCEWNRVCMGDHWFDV
UniProt O08835: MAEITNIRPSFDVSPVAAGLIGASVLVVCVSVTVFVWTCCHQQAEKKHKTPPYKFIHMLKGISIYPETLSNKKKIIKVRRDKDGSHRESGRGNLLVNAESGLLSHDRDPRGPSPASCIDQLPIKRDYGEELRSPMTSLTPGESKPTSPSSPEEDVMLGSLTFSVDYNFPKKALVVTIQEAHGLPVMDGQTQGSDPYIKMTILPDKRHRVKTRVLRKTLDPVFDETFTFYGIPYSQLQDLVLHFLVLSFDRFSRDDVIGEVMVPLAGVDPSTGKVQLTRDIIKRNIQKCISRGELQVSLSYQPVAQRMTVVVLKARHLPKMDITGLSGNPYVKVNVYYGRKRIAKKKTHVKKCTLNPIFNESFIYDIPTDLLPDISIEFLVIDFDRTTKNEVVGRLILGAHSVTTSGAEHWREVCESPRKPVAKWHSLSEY

Target: YFP-parkin (UniProt O60260)
Assay: co-IP; YFP-parkin (or GFP) and Myc-Syt11 co-expressed in HEK293A cells; 10 uM MG132 for 12 h before lysis; lysate buffer 20 mM HEPES pH 7.4, 100 mM KCl, 2 mM EDTA, 1% NP40; IP with anti-GFP or anti-Myc and Protein G/A beads for 4 h at 4 °C; immunoblot

binding: binds
Substance: Myc-Syt11 (full-length rat synaptotagmin-11) (from UniProt O08835 1-430)
